In assay [1] the target is T1, Gyp5-Myc (S. cerevisiae) (UniProt Q12344).
T1 sequence: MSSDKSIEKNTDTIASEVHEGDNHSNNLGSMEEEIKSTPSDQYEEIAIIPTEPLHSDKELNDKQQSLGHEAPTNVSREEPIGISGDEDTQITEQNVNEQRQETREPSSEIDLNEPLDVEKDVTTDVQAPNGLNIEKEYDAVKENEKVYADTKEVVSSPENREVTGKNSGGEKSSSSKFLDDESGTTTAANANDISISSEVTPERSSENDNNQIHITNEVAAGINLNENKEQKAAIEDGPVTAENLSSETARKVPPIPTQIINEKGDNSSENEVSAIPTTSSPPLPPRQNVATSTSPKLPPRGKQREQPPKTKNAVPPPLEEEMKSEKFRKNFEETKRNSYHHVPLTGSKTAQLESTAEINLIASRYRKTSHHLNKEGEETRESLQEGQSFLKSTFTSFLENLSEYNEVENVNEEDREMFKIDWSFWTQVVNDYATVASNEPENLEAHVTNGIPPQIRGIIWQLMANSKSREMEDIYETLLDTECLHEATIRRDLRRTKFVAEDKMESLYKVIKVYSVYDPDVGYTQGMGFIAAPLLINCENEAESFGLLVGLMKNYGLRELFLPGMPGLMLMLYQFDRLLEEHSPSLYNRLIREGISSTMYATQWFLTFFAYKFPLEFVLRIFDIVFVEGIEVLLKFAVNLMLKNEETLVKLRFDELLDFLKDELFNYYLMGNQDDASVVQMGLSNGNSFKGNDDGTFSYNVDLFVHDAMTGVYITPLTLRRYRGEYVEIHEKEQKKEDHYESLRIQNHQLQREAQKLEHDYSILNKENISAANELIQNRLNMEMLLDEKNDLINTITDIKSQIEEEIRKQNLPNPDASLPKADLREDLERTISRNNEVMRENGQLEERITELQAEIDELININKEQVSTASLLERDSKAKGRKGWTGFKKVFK
Briefly: co-IP; rvs167Δrvs161Δ cells synchronised by α-factor and harvested when small-budded cells reached 80%; same lysis and precipitation as for log-phase cells.

For assay [2], the target named is T2, VSV-Rvs161 (S. cerevisiae) (UniProt P25343).
T2 sequence: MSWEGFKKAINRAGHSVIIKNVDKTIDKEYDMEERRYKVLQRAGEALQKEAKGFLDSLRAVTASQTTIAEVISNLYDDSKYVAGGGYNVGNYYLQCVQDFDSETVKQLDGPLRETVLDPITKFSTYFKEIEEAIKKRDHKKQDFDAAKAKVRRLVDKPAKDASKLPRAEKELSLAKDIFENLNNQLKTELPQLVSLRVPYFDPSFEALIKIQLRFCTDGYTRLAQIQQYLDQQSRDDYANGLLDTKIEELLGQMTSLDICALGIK
Described as above.

The target in assay [3] is VSV-Rvs167 (S. cerevisiae) (UniProt P39743). Briefly: co-IP; total extracts of log-phase yeast cells co-expressing the tagged proteins (rvs167Δrvs161Δ, rvs167Δgvp36Δ, rvs161Δgvp36Δ, rvs167Δ, rvs167Δrvs161Δgvp36Δ or diploid cells); lysis buffer 20 mM Tris-HCl pH 7.5, 100 mM NaCl, 1 mM EDTA, 0.5% Triton X-100; anti-Myc, anti-HA, anti-GFP or anti-VSV antibody and protein G-agarose, 4 °C; washes up to 300 mM NaCl.

In assay [4] the target is T2, VSV-Rvs161 (S. cerevisiae). The assay is described as above.
Assay [5] has as its target VSV-Rvs167 (S. cerevisiae) (UniProt P39743). The description is as above. This is another data set of the same source.
For assay [6], the target named is GFP-Rvs167 (S. cerevisiae) (UniProt P39743). Briefly: co-IP; rvs167Δrvs161Δ cells synchronised by α-factor and harvested when small-budded cells reached 80%; same lysis and precipitation as for log-phase cells.
The target in the next assay is T3, Gyl1-HA (S. cerevisiae) (UniProt Q04322).
T3 sequence: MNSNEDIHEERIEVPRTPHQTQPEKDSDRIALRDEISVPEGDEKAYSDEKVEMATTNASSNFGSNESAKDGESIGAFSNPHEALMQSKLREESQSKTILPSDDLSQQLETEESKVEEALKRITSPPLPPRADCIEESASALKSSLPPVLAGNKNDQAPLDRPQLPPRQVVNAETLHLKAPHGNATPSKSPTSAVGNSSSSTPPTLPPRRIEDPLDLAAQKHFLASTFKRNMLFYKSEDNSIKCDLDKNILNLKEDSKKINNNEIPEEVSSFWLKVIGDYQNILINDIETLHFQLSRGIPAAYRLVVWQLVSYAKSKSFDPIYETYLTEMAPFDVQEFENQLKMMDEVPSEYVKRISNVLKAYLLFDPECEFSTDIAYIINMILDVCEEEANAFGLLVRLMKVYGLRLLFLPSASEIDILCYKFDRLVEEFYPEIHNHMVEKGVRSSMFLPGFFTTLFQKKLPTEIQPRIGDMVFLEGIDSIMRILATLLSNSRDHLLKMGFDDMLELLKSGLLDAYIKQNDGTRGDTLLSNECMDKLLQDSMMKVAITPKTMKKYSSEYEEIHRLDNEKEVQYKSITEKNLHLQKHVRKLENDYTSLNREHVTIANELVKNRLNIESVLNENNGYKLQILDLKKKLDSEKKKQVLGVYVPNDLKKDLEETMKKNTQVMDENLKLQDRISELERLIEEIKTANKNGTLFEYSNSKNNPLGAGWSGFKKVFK
The assay can be described thus: co-IP; total extracts of log-phase yeast cells co-expressing the tagged proteins (rvs167Δrvs161Δ, rvs167Δgvp36Δ, rvs161Δgvp36Δ, rvs167Δ, rvs167Δrvs161Δgvp36Δ or diploid cells); lysis buffer 20 mM Tris-HCl pH 7.5, 100 mM NaCl, 1 mM EDTA, 0.5% Triton X-100; anti-Myc, anti-HA, anti-GFP or anti-VSV antibody and protein G-agarose, 4 °C; washes up to 300 mM NaCl.

Assay [7] deals with T1, Gyp5-Myc (S. cerevisiae). Described as above.
Assay [8] deals with Gyl1 fused with the VN or VC part of Venus YFP (S. cerevisiae) (UniProt Q04322). Briefly: split reporter; BiFC in living diploid yeast cells, scored only at the tip of small buds (ratio of bud width to bud neck width ≤ 1).

Read-outs that look alike come from different tables or passages of the source. No constants are given. Whether binding was seen depends on the method and setting. In cells and extracts the contact can be indirect. Some results given as binding are weak or reduced against the parent protein; the word gives no strength. For part of these data: Tags and fused reporters may be left off the sequences shown.

As for GFP-Rvs167 (from UniProt P39743 1-482), the binding entry (in the assay with Gyp5-Myc (S. cerevisiae) [1]; in [2]; in assay [3]) was “binds” in each case.

B1: GFP-Gvp36 (protein, UniProt P40531 2-326)
chain: SFNAFASSLSKKLQEISTSVSEKTQELPSLAQSTQRMVQERLGQVTDISQLPREYTELEDKVDTIKLIYNHFLGVTAIYENGSYDYPKYINESVNEFSRSVASKLTELTHATSASEAQNILVAPGPIKEPKTLNYALSKVALNSSECLNKMFPTEEQPLASALLQFSDVQAKIAQARIQQDTLIQTKFNKNLRERLSFEIGKADKCRKDVHSMRLRYDVARTNLANNKKPEKEASLRVQMETLEDQFAQVTEDATVCLQEVISHANFSEDLKELAKAQAEYFETSAGLMKEFLSNSFAEEPEAKPEVAEEEKPQTAISMNDEDDA
Regarding B1, the binding entry in assay [4] and in assay [5] was “binds weakly” each time.

B2: VSV-Rvs161 (protein, UniProt P25343 1-265)
chain: T2 sequence
In the case of B2, the binding entry (in assay [6]; with Gyl1-HA (S. cerevisiae); in the assay with Gyp5-Myc (S. cerevisiae) [7]) was “binds” throughout.

B3: Gyl1 fused with the VN or VC part of Venus YFP (protein, UniProt Q04322 1-720)
chain: T3 sequence
On to B3, for which the binding entry in [8] was “no binding”.

The values are drawn from publication PMC6997364.
